Two substances from PMC9045202 can be followed below.

Chains of the proteins cited; added tags and fusions are not shown. Residues count along the entry.
UniProt P02787, residues 20-698: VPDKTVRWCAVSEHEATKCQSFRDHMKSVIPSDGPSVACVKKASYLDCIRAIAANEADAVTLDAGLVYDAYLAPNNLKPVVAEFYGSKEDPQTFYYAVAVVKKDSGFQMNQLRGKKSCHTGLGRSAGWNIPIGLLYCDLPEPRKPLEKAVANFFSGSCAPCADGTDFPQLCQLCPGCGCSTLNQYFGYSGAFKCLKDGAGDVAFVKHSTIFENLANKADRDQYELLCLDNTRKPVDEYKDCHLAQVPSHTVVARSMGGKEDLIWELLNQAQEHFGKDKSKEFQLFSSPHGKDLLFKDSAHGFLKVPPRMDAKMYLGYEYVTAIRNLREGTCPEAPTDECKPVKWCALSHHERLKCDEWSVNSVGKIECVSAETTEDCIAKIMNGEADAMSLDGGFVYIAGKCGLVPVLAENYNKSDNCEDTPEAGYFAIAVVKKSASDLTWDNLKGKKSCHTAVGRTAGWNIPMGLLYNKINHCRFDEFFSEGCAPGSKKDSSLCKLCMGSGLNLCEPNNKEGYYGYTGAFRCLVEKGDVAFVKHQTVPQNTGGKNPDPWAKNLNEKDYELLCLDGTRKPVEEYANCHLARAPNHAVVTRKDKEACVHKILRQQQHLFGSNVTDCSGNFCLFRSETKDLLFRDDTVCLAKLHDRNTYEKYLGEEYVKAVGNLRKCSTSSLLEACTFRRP

In test [1] the target is EFG with Dm1 deletion displayed on the surface of E. coli BL21 (BL21-pEImC-ΔDm1) (Escherichia coli (ExPEC strain RS218)) (UniProt P0A6M8). The test is described as follows: fluorescence intensity of labelled ligand bound to bacteria; BL21 strains with pEImC plasmids incubated with 20 μg/mL fluor-TF alone, 1 h at 4°C; fluorescence of 10^7 bacterial cells, excitation 485 nm, emission 535 nm; only the binder purified.

The target in test [2] is EFG with Dm5 deletion displayed on the surface of E. coli BL21 (BL21-pEImC-ΔDm5) (Escherichia coli (ExPEC strain RS218)) (UniProt P0A6M8). Described as above.
In test [3] the target is recombinant EFG with Dm1 deletion (ΔDm1) (Escherichia coli (ExPEC strain RS218)) (UniProt P0A6M8). The test is described as follows: ELISA; rEFG, its deletion proteins or rHis (0, 0.01, 0.1, 0.2, 0.5 μM) immobilised on ELISA plates, blocked with 2% BSA; 0.2 μM bio-TF (or bio-apo-TF) then HRP-streptavidin, 2 h at 4°C; both purified. For orientation: In an ELISA, binding on a coated surface is turned into a signal by an enzyme label.

The target in test [4] is EFG with Dm1 deletion displayed on the surface of E. coli BL21 (BL21-pEImC-ΔDm1) (Escherichia coli (ExPEC strain RS218)) (UniProt P0A6M8). The test is described as follows: bio-TF recovered with bacteria isolated from macrophages, blot with HRP-streptavidin; THP-1 cells infected with BL21 strains with pEImC plasmids, 1 mg bio-TF for 1 h at 4°C then 1 h at 37°C; intracellular bacteria isolated (0.1% SDS lysis, washes, 0.22 μm filter) and blotted; bio-TF band relative to LexA band; only the binder purified.

The target of test [5] is EFG with Dm5 deletion displayed on the surface of E. coli BL21 (BL21-pEImC-ΔDm5) (Escherichia coli (ExPEC strain RS218)) (UniProt P0A6M8). The test is described as above.

No constants are given. Whether binding was seen depends on the method and setting. Some results given as binding are weak or reduced against the parent protein; the word gives no strength.

As to “fluorescein conjugated holo-TF (fluor-TF) (from UniProt P02787 20-698)”, the binding result in test [1] and in test [2] was “binds” in each case.

On to “EZ-Link sulfo-NHS-LC-desthiobiotin-labeled holo-TF (bio-TF) (from UniProt P02787 20-698)”, for which the binding result in test [3], in test [4] and in test [5] was “binds” each time.
